The values below come from PubChem BioAssay AID1487 (National Center for Advancing Translational Sciences (NCATS), 2009).

The test is described as follows: qHTS Assay for Modulators of Lamin A Splicing. The following applies: HeLa LMNA splicing GFP/RFP minigene ratio, 48 h. In short, it runs like this:
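S3 HeLa cells stably expressing lamin A-EGFP splicing minigene plus DsRed2, 600 cells/well, 48 h compound exposure at 37C. Laser-scanning cytometry; analysed as GFP (500-530 nm)/RFP (575-640 nm) total intensity ratio; 0.5% DMSO vehicle.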

Where [1] appears, read: measured here: GFP splicing reporter channel.
Where [2] appears, read: measured here: RFP viability control channel.

Several values for one entry are separate records, joined by “and”; a condition that tells them apart may be missing. Equal entries are not always repeated. The list shows a part of the results. These are further read-outs of the screen, such as a control signal, another cell line or another target. No call is given for them. Compounds called inactive in the main read-out are mostly missing here. Potencies come from curve fits of mixed quality, noted in brackets.

What is called AC50 is the concentration at which the activity in the assay is half-maximal. Turning to `CCOC(=O)c1ccccc1NC(=O)CN(c1cccc(OC)c1)S(C)(=O)=O`, the AC50 is 8.91 µM [rising, partial curve] under setting [1] and 11.2 µM [rising, partial curve] under setting [2].

As to `COc1ccc(Nc2nc(-c3ccccc3)c3ccccc3n2)cc1`, the AC50 under setting [2] is 20 µM [rising, single point].

On to `O=C(/C=C/c1ccccc1Cl)NCCc1ccc(F)cc1`, for which the AC50 under setting [1] was 0.251 µM [rising, full curve, poor fit].

With `CC1CCN(c2nnc(-c3cccs3)c3ccccc23)CC1`, under setting [2], the AC50 was 4.47 µM [rising, partial curve].

Turning to `Cc1cc(-c2ccc(/C=N/n3cnnc3)o2)ccc1Cl`, the AC50 under setting [1] is 39.8 µM [falling, partial curve, poor fit].

Regarding `CC(=O)Oc1ccc2c(c1)Oc1cc(OC(C)=O)ccc1C21OC(=O)c2ccccc21`, the AC50 under setting [1] is 0.112 µM [falling, full curve] and the AC50 under setting [2] was 0.112 µM [falling, full curve].

As for `COc1ccc(CNc2ccnc(-c3ccoc3)n2)c(OC)c1`, under setting [1], the AC50 is 12.6 µM [falling, partial curve].

Consider `Cc1cccc(-c2noc(CN(C)S(=O)(=O)c3cc(Cl)ccc3Cl)n2)c1`, for which, under setting [2], the AC50 was 35.5 µM [rising, single point].

With `COc1cc(OC)cc(C(=O)Oc2ccc(/C=N/Nc3nc4ccccc4s3)cc2OC)c1`, the AC50 was 20 µM [rising, partial curve, poor fit] under setting [1] and 17.8 µM [rising, partial curve, poor fit] under setting [2].

As to `CN(CCCC(=O)Nc1nccs1)S(=O)(=O)c1ccc(Cl)cc1`, the AC50 under setting [2] was 17.8 µM [rising, partial curve, poor fit].

With `CCCCNc1c(C(=O)OCC)c(C)nc2c1cnn2CC`, the AC50 under setting [1] is 355 nM [falling, full curve, poor fit] and 126 nM [falling, full curve, poor fit]; the AC50 under setting [2] is 316 nM [falling, single point] and 25.1 µM [falling, single point].

Turning to `CCn1c2ccccc2c2cc([N+](=O)[O-])ccc21`, the AC50 under setting [2] is 5.01 µM [rising, partial curve].

Turning to `O=c1nc2sc3ccccc3n2c(=O)n1-c1ccc(Cl)cc1`, the AC50 under setting [2] was 35.5 µM [rising, single point].

Turning to `CCOc1ccc(CNC(=O)c2ccc3c(c2)nc2n3CCCCC2)cc1`, the AC50 under setting [1] was 0.0224 µM [rising, partial curve, poor fit].

In the case of `CC(C)(C)NC(=O)c1nc2ccccc2s1`, the AC50 under setting [2] is 2.82 µM [falling, partial curve, poor fit].

Regarding `Cc1nc2ccccc2nc1CSc1nncs1`, the AC50 under setting [1] is 20 µM [rising, single point].

Take `CN(c1ccccc1)c1ccc(/C=C/[N+](=O)[O-])cc1`: the AC50 is, setting by setting: under setting [1], 4.47 µM [falling, partial curve, poor fit]; under setting [2], 4.47 µM [falling, single point].

For the molecule `COc1ccc(N2CCN(C(=O)CSc3nnc4n3C(C)(C)Cc3ccccc3-4)CC2)cc1`, the AC50 under setting [2] was 15.8 µM [rising, single point].

Consider `Cc1ccc(S(=O)(=O)N2CCC(=O)N(CCOC(=O)Nc3ccc(F)cc3)CC2)cc1`, for which the AC50 under setting [1] is 8.91 µM [rising, partial curve, poor fit].

Consider `CCCCNC(=O)Cc1c(OC)ccc2cc(Br)ccc12`, for which the half-maximal activity concentration (AC50) under setting [2] was 2.51 µM [rising, full curve, poor fit].

As to `Cc1cc(C(=O)COc2cc(F)ccc2[N+](=O)[O-])c(C)n1C1CC1`, under setting [1], the AC50 is 0.112 µM [falling, full curve, poor fit].

Regarding `CN1c2ccccc2C(C)(C)C12C=Cc1cc(O)ccc1O2` (stereo not given), the AC50 under setting [1] is 35.5 µM [falling, single point].

`COc1cc([N+](=O)[O-])ccc1NC(=O)Nc1nc2c(s1)CCCC2`: the AC50 under setting [1] was 35.5 µM [rising, single point].

In the case of `CC[N+](CC)(CC)CC(=O)Nc1c(C)cccc1C`, the AC50 under setting [2] is 8.91 µM [rising, partial curve, poor fit].

Turning to `CC[C@H](C)[C@H]1O[C@]2(CC[C@@H]1C)C[C@@H]1C[C@@H](C/C=C(\C)[C@H](O[C@@H]3C[C@H](OC)[C@H](O[C@@H]4C[C@H](OC)[C@@H](O)[C@H](C)O4)[C@H](C)O3)[C@@H](C)/C=C/C=C3\CO[C@@H]4[C@H](O)C(C)=C[C@@H](C(=O)O1)[C@]34O)O2`, the half-maximal activity concentration (AC50) was 2.24 µM [falling, partial curve, poor fit] under setting [1] and 2.51 µM [rising, partial curve] under setting [2].

Take `CCCCCCCCC/C(=N\O)c1ccccn1`: the half-maximal activity concentration (AC50) was 14.1 µM [falling, single point] under setting [1] and 0.631 µM [falling, partial curve] under setting [2].

With `C=C(C)Cn1c(SCC(=O)NCc2ccco2)nc2sc3c(c2c1=O)CCC3`, under setting [2], the AC50 is 0.562 µM [rising, full curve, poor fit].

`Fc1ccc(N=C2NN=C(c3cc(F)ccc3F)CS2)cc1`: the AC50 under setting [2] was 17.8 µM [rising, partial curve].

With `CCOC(=O)C1CCCN(C(=O)c2ccc3c(c2)sc2nc(-c4ccc(C)cc4C)cn23)C1` (stereo not given), the AC50 is, setting by setting: under setting [1], 5.62 µM [rising, full curve]; under setting [2], 7.08 µM [rising, partial curve].

Turning to `O=C(CCCOc1ccccc1)NCCc1nc2ccccc2[nH]1`, the AC50 under setting [2] was 1.41 µM [falling, full curve, poor fit].

Take `O=C(NCCCNc1ccc([N+](=O)[O-])cc1)C(F)(F)F`: under setting [1], the AC50 was 31.6 µM [rising, single point].

Consider `O=C(c1cccc(Cl)c1)N1c2ncnn2C2(CCCCC2)[C@@H]2CCCC[C@@H]21`, for which the AC50 was 25.1 µM [falling, single point] under setting [1] and 5.01 µM [falling, partial curve, poor fit] under setting [2].

Take `Nc1nnc(N2CCc3ccccc32)s1`: the AC50 under setting [1] is 0.631 µM [falling, partial curve, poor fit].

Consider `Cc1ccc(CCNC(=O)c2nnn(-c3cccc(C)c3)c2N)cc1`, for which the AC50 under setting [2] is 14.1 µM [rising, partial curve, poor fit].

For `Cc1ccc(-c2csc3ncnc(-n4nnc5ccccc54)c23)cc1C`, the AC50 reads like this: under setting [1], 12.6 µM [rising, partial curve]; under setting [2], 22.4 µM [rising, partial curve].

With `CS(=O)(=O)N1CCN(c2ccc(Cl)cc2[N+](=O)[O-])CC1`, the AC50 under setting [2] is 39.8 µM [rising, partial curve, poor fit].

For `c1ccc(CCc2nc3ccccc3[nH]2)cc1`, under setting [1], the AC50 was 0.282 µM [rising, full curve, poor fit].

Turning to `Cc1ccc(S(=O)(=O)Nc2ccccc2CNc2ccc(Br)cn2)cc1`, under setting [1], the AC50 is 14.1 µM [rising, partial curve].

Turning to `Cc1cc(/C=N/NC(=O)CC#N)c(C)n1-c1ccc([N+](=O)[O-])cc1`, the AC50 under setting [1] was 0.0562 µM [falling, full curve, poor fit].

As for `COCCNC(=O)c1cc(OC)c(OC)cc1[N+](=O)[O-]`, the AC50 under setting [1] is 10 µM [rising, partial curve, poor fit].

Take `COCc1cc(C)nc2sc3c(=O)n(-c4ccccc4C(F)(F)F)nnc3c12`: the AC50 under setting [2] was 0.141 µM [falling, full curve, poor fit].

For the molecule `CCCN1C/C(=C/c2ccc3c(c2)OCO3)C(=O)/C(=C/c2ccc3c(c2)OCO3)C1`, the concentration at half-maximal activity (AC50) under setting [2] was 10 µM [rising, partial curve].

Turning to `Cc1c(C(=O)N2CCCCC2)oc2ccc(S(=O)(=O)N3CC(C)CC(C)C3)cc12` (stereo not given), the AC50 was 2 µM [rising, partial curve] under setting [1] and 3.16 µM [rising, full curve] under setting [2].

Consider `Oc1ccc2ccccc2c1C=Nc1ccccc1-c1nc2ccccc2[nH]1`, for which, under setting [2], the AC50 was 28.2 µM [rising, single point].

Consider `O=C(CCc1ccccc1O)N/N=C/c1ccc(Sc2cccc3cccnc23)o1`, for which the AC50 is 35.5 µM [rising, single point] under setting [1] and 35.5 µM [rising, single point] under setting [2].

For `CCOC(=O)c1c(S(=O)(=O)NCC(=O)NCc2ccccc2Cl)c(C)n(C)c1C`, the AC50 under setting [1] is 5.62 µM [rising, single point].

Turning to `CCOC(=O)CC1COc2ccccc2N1C(=O)c1ccc(F)cc1` (stereo not given), under setting [1], the AC50 was 2.51 µM [rising, partial curve, poor fit].

`CCOC(=O)c1sc(=S)n(-c2cc(F)ccc2F)c1N`: the concentration at half-maximal activity (AC50) under setting [1] was 3.16 µM [falling, single point].

Take `O=C(Nc1ccc2c(c1)CCC2)c1cnn2c1NC(c1ccco1)CC2C(F)(F)F` (stereo not given): the AC50 under setting [2] is 5.62 µM [rising, single point].

Regarding `CSc1nc2nc(-c3cccc(C(F)(F)F)c3)ccn2n1`, the AC50 under setting [2] was 0.00282 µM [falling, full curve, poor fit].

As to `O=C(N/N=C\C=C\c1ccc2c(c1)OCO2)c1cccnc1`, the AC50 under setting [2] is 10 µM [rising, partial curve, poor fit].

Consider `Cc1sc2nc(CN(Cc3cccs3)C(=O)C3CC3)[nH]c(=O)c2c1C`, for which the AC50 under setting [2] was 20 µM [rising, single point].

`CCCc1ccc(Oc2cn[nH]c2-c2ccc(O)c(C)c2O)cc1`: the AC50 under setting [2] is 25.1 µM [rising, partial curve].

As to `O=C1C(C=Nc2ccccc2O)=C(O)c2ccccc21`, the AC50 is 14.1 µM [rising, single point] under setting [1] and 31.6 µM [rising, single point] under setting [2].

Consider `COCC(C)n1c(C)cc(C(=O)COC(=O)c2n[nH]c3ccccc23)c1C` (stereo not given), for which the AC50 under setting [2] is 5.01 µM [rising, full curve, poor fit].

In the case of `Oc1ccc(/C=N/Nc2ncnc3c2ncn3Cc2ccccc2)cc1O`, the AC50 reads like this: under setting [1], 10 µM [rising, partial curve]; under setting [2], 14.1 µM [rising, partial curve].
